Results deposited as PubChem BioAssay AID504804 (Drosophila RNAi Screening Center, 2011)
In all, the deposit lists about 19,000 reagents; below is a random part of those with a known target gene and a result. Over the whole deposit, 47 (0.25%) got an active call. 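Signals are raw, not normalised; exact z-scores behind calls not deposited; actives needed confirmation, so some wells reaching 2 SD are inactive.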 Unmarked entries are inactive. Reagents against one gene are numbered here. Names joined by + are all predicted targets of the reagent.

- Purpose: 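Knock-downs shielding fly cells from apoptosis caused by DNA damage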 (primary screen)
- Cell system: Drosophila Kc cells
- Reagents: long dsRNA against Drosophila genes, 0.5 µg dsRNA per well
- Time to read-out: 96 h (48 h knock-down, then 48 h drug)
- Treatment: doxorubicin 5 µg/ml for 48 h, added 48 h after dsRNA
- Measurement: 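Viability measured as cellular ATP by luminescence after 48 h knock-down then 48 h doxorubicin at 5 µg/ml; unnormalised plate counts for each replicate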
- Reading the numbers: raw ATP luminescence: higher = more viable cells, protection from doxorubicin
- Active means: 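z-score of 2 or more over plate mean in both duplicates, retained only when retests and separate dsRNAs confirm the protection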

Silencing of TwdlW (TweedleW) gave: raw ATP luminescence, replicate 1 = 73040; raw ATP luminescence, replicate 2 = 72760.
MAGE gave raw ATP luminescence, replicate 1 = 66130; raw ATP luminescence, replicate 2 = 62073.
Depletion of Uvrag (UV-resistance associated gene) resulted in: raw ATP luminescence, replicate 1 = 1.02e5; raw ATP luminescence, replicate 2 = 69280.
Depletion of CG9498 gave: raw ATP luminescence, replicate 1 = 22970; raw ATP luminescence, replicate 2 = 28257.
With knock-down of CG13062, the record shows raw ATP luminescence, replicate 1 = 55427; raw ATP luminescence, replicate 2 = 49907.
With knock-down of CG17672 #1, the screen gave raw ATP luminescence, replicate 1 = 25953; raw ATP luminescence, replicate 2 = 23343.
Knock-down of CG17672 #2 gave: raw ATP luminescence, replicate 1 = 41833; raw ATP luminescence, replicate 2 = 35633.
Knock-down of Gr28b (Gustatory receptor 28b) #1 came out at: raw ATP luminescence, replicate 1 = 25523; raw ATP luminescence, replicate 2 = 33847.
For Gr28b (Gustatory receptor 28b) #2, the entry reads raw ATP luminescence, replicate 1 = 26090; raw ATP luminescence, replicate 2 = 30577.
With knock-down of Tsp3A (Tetraspanin 3A), the screen gave raw ATP luminescence, replicate 1 = 52140; raw ATP luminescence, replicate 2 = 63230.
For beat-IIIc (beaten path IIIc) #1 the deposit lists raw ATP luminescence, replicate 1 = 80353; raw ATP luminescence, replicate 2 = 99070.
Silencing of beat-IIIc (beaten path IIIc) #2 resulted in: raw ATP luminescence, replicate 1 = 60760; raw ATP luminescence, replicate 2 = 94853.
For GluRIIB (Glutamate receptor IIB), the values are raw ATP luminescence, replicate 1 = 26213; raw ATP luminescence, replicate 2 = 29890.
After knock-down of CG10301, the screen gave raw ATP luminescence, replicate 1 = 59630; raw ATP luminescence, replicate 2 = 70500.
Knock-down of CG32109 resulted in: raw ATP luminescence, replicate 1 = 77507; raw ATP luminescence, replicate 2 = 68390.
Against Hip1 (Huntingtin interacting protein 1) the deposit lists raw ATP luminescence, replicate 1 = 38803; raw ATP luminescence, replicate 2 = 43107.
Pburs (Partner of Bursicon) gave raw ATP luminescence, replicate 1 = 50587; raw ATP luminescence, replicate 2 = 69773.
Silencing of Mys45A (Mystery 45A) resulted in: raw ATP luminescence, replicate 1 = 45447; raw ATP luminescence, replicate 2 = 47723.
Knock-down of CG15561 gave: raw ATP luminescence, replicate 1 = 67110; raw ATP luminescence, replicate 2 = 55310.
After knock-down of fid (fire dancer) #1, the screen gave raw ATP luminescence, replicate 1 = 84970; raw ATP luminescence, replicate 2 = 67620.
fid (fire dancer) #2 gave raw ATP luminescence, replicate 1 = 81770; raw ATP luminescence, replicate 2 = 70730.
For PCNA (Proliferating cell nuclear antigen), the values are raw ATP luminescence, replicate 1 = 49533; raw ATP luminescence, replicate 2 = 59207.
NimC2 (Nimrod C2) gave raw ATP luminescence, replicate 1 = 74277; raw ATP luminescence, replicate 2 = 70510.
Knock-down of CG1092 resulted in: raw ATP luminescence, replicate 1 = 32883; raw ATP luminescence, replicate 2 = 34843.
Depletion of sxe2 (sex-specific enzyme 2) resulted in: raw ATP luminescence, replicate 1 = 46653; raw ATP luminescence, replicate 2 = 45940.
Silencing of hpRNA:CR18854 + IP3K1 gave: raw ATP luminescence, replicate 1 = 83837; raw ATP luminescence, replicate 2 = 64817.
Silencing of SdhAL (Succinate dehydrogenase, subunit A (flavoprotein)-like) gave: raw ATP luminescence, replicate 1 = 35200; raw ATP luminescence, replicate 2 = 32200.
Got2 (Glutamate oxaloacetate transaminase 2) scored raw ATP luminescence, replicate 1 = 1.09e5; raw ATP luminescence, replicate 2 = 75833.
CG12307 gave raw ATP luminescence, replicate 1 = 46560; raw ATP luminescence, replicate 2 = 72423.
For gig (gigas) the deposit lists raw ATP luminescence, replicate 1 = 35503; raw ATP luminescence, replicate 2 = 48090.
For Aos1 (Activator of SUMO 1) the deposit lists raw ATP luminescence, replicate 1 = 68147; raw ATP luminescence, replicate 2 = 44520.
For Rhp (Rhophilin), the entry reads raw ATP luminescence, replicate 1 = 3.65e5; raw ATP luminescence, replicate 2 = 3.29e5.
CG10841 showed raw ATP luminescence, replicate 1 = 49210; raw ATP luminescence, replicate 2 = 34820.
Against pigs (pickled eggs) #1 the deposit lists raw ATP luminescence, replicate 1 = 2.38e5; raw ATP luminescence, replicate 2 = 2.31e5.
Knock-down of pigs (pickled eggs) #2 gave: raw ATP luminescence, replicate 1 = 27410; raw ATP luminescence, replicate 2 = 34550.
Against pigs (pickled eggs) #3, the entry reads raw ATP luminescence, replicate 1 = 23430; raw ATP luminescence, replicate 2 = 36590.

Laid out differently: 4 of the entries above.
predicted target	reagent	raw ATP luminescence, replicate 1	raw ATP luminescence, replicate 2
sxe2 (sex-specific enzyme 2)	1	46653	45940
hpRNA:CR18854 + IP3K1	1	83837	64817
SdhAL (Succinate dehydrogenase, subunit A (flavoprotein)-like)	1	35200	32200
Got2 (Glutamate oxaloacetate transaminase 2)	1	1.09e5	75833
